Data taken from PubChem BioAssay AID1259415 (National Center for Advancing Translational Sciences (NCATS), 2018).
Several values for one entry are separate records, joined by “and”; a condition that tells them apart may be missing. Equal values may be shown once. The campaign covered roughly 410,000 compounds. About 18,000 (4.4%) were called active. The inconclusive results got no clear call from the source; some entries with a clear call stand among them for comparison. Rule as the data show it: active = activity change below about -60%; inconclusive = no clear call, values can overlap the other calls; inactive = above about -39%.

Assay: qHTS Assay for inhibitors of the human cytomegalovirus (HCMV)
Conditions: HFF cells, HCMV-luciferase reporter, 72 h; at 57.5 µM; stronger effect = lower value
Summary of the method: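 Luciferase read-out from HCMV-luciferase-infected HFFs (MOI 1 PFU/cell) 72 h post infection at 37C; compounds added after 16 h cell attachment; activity normalized between buffer-only basal and Salinomycin (10uM) inhibitor controls.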
% is scaled to controls: 0 for no effect and ±100 for the full control effect.

SMILES	activity change, negative = inhibition
COc1ccc(NC(=O)/C(C#N)=C/c2cc(C)n(-c3ccc(N4CCOCC4)c([N+](=O)[O-])c3)c2C)cc1	inconclusive: -58.4%
NC(=O)C1CCN(C(=O)CC2(CC(=O)O)CCCCC2)CC1	inconclusive: -52.2%
CCCCn1c(SCC(=O)Nc2ccc3c(c2)CCC3)nc2ccccc2c1=O	inconclusive: -47.1%
CCOC(=O)CCSc1nc(C)c2cc(C)c(C)cc2n1	inactive: -26.8%
COc1cccc(CNC(=O)Cn2cc3c(n2)-c2c(oc(C(=O)N4CCCC4)c2C)CC3)c1	inconclusive: -55.8%
COc1ccc(C(=O)CSc2nnc(Cc3ccccc3)o2)cc1	inconclusive: -43.3%
CSc1ncccc1C(=O)NCC(=O)Nc1ccc(F)c(F)c1	inconclusive: -41.4%
CCCS(=O)(=O)N1CCN(Cc2ccc(OCc3ccccc3)c(OC)c2)CC1	inconclusive: -59.3%
Cc1cc(C)c(C)c(S(=O)(=O)NCC(=O)N2CCCC2)c1C	inactive: -14.7%
COCCCN=C1NN=C(c2cc(C)n(-c3ccccc3F)c2C)CS1	inconclusive: -47.9%
CC1(C)Oc2ccc3ccc(=O)oc3c2/C(=C/NNC(N)=O)C1=O	active: -94.9%
O=C(O)C(Cc1ccccc1)Nc1ccc([N+](=O)[O-])cc1[N+](=O)[O-] (stereo not given)	inconclusive: -41.3%
O=c1[nH]c(Nc2nc3ccccc3o2)nc2c1CCCC2	active: -98.6%
O=C(Cc1ccccc1)Nc1ccc(CN2CCOCC2)cc1	inactive: -29.7%
O=C1CCCN1CCC1CCCCN1Cc1nc(-c2cnccn2)no1 (stereo not given)	inactive: -31%
COc1cccc(CN(C)CC(O)COC(c2ccccc2)c2ccccc2C)c1 (stereo not given)	inconclusive: -47.6%
Cc1nn(Cc2ccc(Cl)cc2)c(C)c1NC(=O)c1noc2c1CCc1ccccc1-2	inactive: -30.6% and inactive: 36.1%
COc1ccc(CCc2cc(OC)c(OC)c(OC)c2)cc1	inconclusive: -53.9%
O=C(CCN1C(=O)C2C3CCC(C3)C2C1=O)Nc1ccc([N+](=O)[O-])cc1 (stereo not given)	inactive: -29.7%
Cn1c(=O)c2c(ncn2CC(=O)OCC(=O)Nc2sccc2C(N)=O)n(C)c1=O	inactive: 12.3%
COc1ccc(CCNC(=O)c2cccc(S(=O)(=O)N3CCOCC3)c2)cc1OC	inactive: -8.39%
CC1(C)CN2C(c3ccc(Cl)cc3)N2C1 (stereo not given)	active: -74.7%

SMILES	activity change, negative = inhibition
CCN(CC)S(=O)(=O)c1ccc(NC(=O)CCc2c(C)nc3cc(-c4ccc(Cl)cc4)nn3c2C)cc1	active: -75.5%
O=C(N/N=C/c1ccccc1O)C1SCCCS1	inactive: -0.441%
CC(C)Cc1nn2c(=O)cc(COC(=O)c3ccc4c(c3)OCO4)nc2s1	inactive: 1.03%
Nc1ncc(-c2ccccc2)c(-c2ccc(OCc3ccccc3)cc2O)n1	inconclusive: -44.6%
COc1ccc(Cl)cc1NC(=O)CSc1ccc(-c2sc(C)nc2C)nn1	inactive: 104%
COc1cc(CNc2ccc3[nH]c(=O)[nH]c3c2)ccc1OCc1ccccc1F	inconclusive: -55.7%
Cn1cnnc1SCc1ccc(C(=O)N/N=C(\CCC(=O)O)c2ccc(C(C)(C)C)cc2)cc1	inactive: 17.1%
CC1CN(C(=O)Nc2cccc(C(F)(F)F)c2)CC(C)O1 (stereo not given)	inconclusive: -41.2%
Cc1ccc(S(=O)(=O)N2CCN(C(C)C(=O)Nc3ccccc3-c3ccccc3)CC2)cc1 (stereo not given)	inconclusive: -51.4%
Cc1cccc(C)c1OCC(=O)Nn1c(=O)[nH]c2ccccc2c1=O	inconclusive: -53.4%
CCOC(=O)Cc1nnc(NC(=O)C(CC)Sc2nc(C)cc(C)n2)s1 (stereo not given)	inconclusive: -47.8%
CCc1nc2cccnc2n1-c1ccc(CC(=O)Nc2ccc(C)cc2)cc1	inconclusive: 0%
COc1ccccc1N=CC1=C(O)CC(c2ccccc2)CC1=O (stereo not given)	inactive: -13.8%
Cc1cc(SCC(=O)OCC(=O)N(CCC#N)c2ccccc2)nc2ccccc12	inconclusive: -41.6%
O=C(Nc1ccncc1)Nc1ccc(F)cc1F	inactive: 16.9%
CCOC(=O)c1c(C)[nH]c(CCC(=O)NCCCN2CCN(c3cc(C)ccc3C)CC2)c1C	inconclusive: -44.2%
CC(C)(C)c1ccc(NC(=O)c2cc[n+]([O-])cc2)cc1	inconclusive: -40.7%
Cc1c(CC=C(Cl)Cl)c(=O)[nH]c2c(C)cccc12	inconclusive: -56%
CCN(CC)CCCNC(=O)CCC(=O)Nc1ccc2nc(N3CCC(C)CC3)cc(C)c2c1	inconclusive: -47.7%
O=c1oc2c(CN3CCOCC3)c(O)ccc2cc1-c1ccc(Cl)cc1	inconclusive: -40.7%
CCn1c(=O)c2cc(C(=O)NC3CCCCCC3)sc2c2ccccc21	inconclusive: -54.8%
COc1ccc(NC(=O)COc2ccc(/C=N/n3c(C)nnc3C)cc2OC)cc1	inactive: 68.2%

SMILES	activity change, negative = inhibition
Cc1nnc(NC(=O)c2cccc(NC(=O)C(C)C)c2)s1	inactive: 40.5%
O=C(CC1CC2CCC1C2)N1CCN(S(=O)(=O)c2ccc(F)cc2)CC1 (stereo not given)	inconclusive: -50.9%
Cn1c(=O)c(C(=O)NNC(=O)c2ccccc2Br)c(O)c2ccccc21	inconclusive: -40.2%
CCCCCCOc1ccc(/C(C)=N/NC2=NCCN2)cc1[N+](=O)[O-]	inconclusive: -46.9%
CN1CCN(S(=O)(=O)c2ccc(N(C)Cc3ccc(OC(F)F)cc3)c([N+](=O)[O-])c2)CC1	inconclusive: -54.2%
C[C@@H](NC(=O)[C@@H]1CCCN1C(=O)[C@@H]1CCCN1C(=O)c1cccs1)c1ccccc1	inactive: 4.79%
CCCc1cc(=O)[nH]c(SCC(=O)Nc2ccc([N+](=O)[O-])cc2C#N)n1	inconclusive: -45.8%
CC(NC(=O)c1ccc2c(c1)N(Cc1ccc(Cl)cc1)C(=O)c1ccccc1S2(=O)=O)c1ccccc1 (stereo not given)	inactive: 51.1%
Cc1ccccc1Nc1nc(N)nc(CSc2nnnn2-c2ccccc2)n1	inconclusive: -40.5%
O=c1c2ccccc2nc(/C=C/c2ccc3c(c2)OCO3)n1-c1cccc(O)c1	inconclusive: -58.1%
COc1cc(OC)cc(C(=O)N[C@H](C(=O)OCC(=O)Nc2ccc(C(N)=O)cc2)C(C)C)c1	inconclusive: -55.1%
CC(C)OC(=O)c1sc2nc(-c3ccccc3)ccc2c1N	inconclusive: -46.6%
CN(C)S(=O)(=O)c1ccc(NC(=O)CNc2cc(S(=O)(=O)N3CCCC3)ccc2OCC(F)(F)F)cc1	inconclusive: -48.3%
N#C/C(=C\Nc1ccc2cn[nH]c2c1)c1nc(-c2ccc(Cl)cc2)cs1	inconclusive: -54.7%
CCN(CC)CCCCCC(=O)Nc1ccccc1C(=O)Nc1ccccc1	inactive: 0.152%
Cc1ccc(-n2c(C)cc(C(=O)Cn3nc(C(=O)O)c4ccccc4c3=O)c2C)cc1	inconclusive: -44.4%
Cc1cccc2c1-c1sc(C(=O)Nc3nccs3)cc1CO2	inconclusive: -48.7%
O=C(O)C1C2CCC1C(O)C2 (stereo not given)	inactive: 18.3%
CNS(=O)(=O)c1cn(CC(=O)N2CCN(c3ccc(OC)cc3)CC2)cc1S(=O)(=O)NC	inconclusive: 0%
CCCCn1nc(C(=O)Nc2ccc3c(c2)OCCO3)c2ccccc2c1=O	active: -68.6%
COc1cccc(C2CC(c3ccccc3)=NN2S(=O)(=O)c2ccccc2)c1OC (stereo not given)	inconclusive: -54.2%
Cc1ccc2nc(-c3ccncc3)c(Nc3ccccc3C)n2c1	inconclusive: -56.6%

SMILES	activity change, negative = inhibition
CC1=C(c2ccc(C)cc2)S(=O)(=O)N=C1N1CCN(c2ccccc2)CC1	inconclusive: 0%
O=C(Nc1cccc(-c2cccc(F)c2)c1)C1CCN(CC2CCOC2)CC1 (stereo not given)	inactive: -21%
CCOC(=O)c1cnc2ccccc2c1Nc1ccc2c(c1)OCCO2	active: -70%
O=C(O)c1cc(S(=O)(=O)O)cc(Nc2c3ccccc3nc3ccccc23)c1O	inconclusive: -43.5%
OCCNCCOCCOc1ccccc1-c1ccccc1	inconclusive: -40.3%
COc1ccc(NC(=O)C2CCN(c3cc(-c4ccccc4)nc4ncnn34)CC2)cc1OC	active: -89.4%
Nc1nc(NCCO)nc(NC2CCCCC2)c1[N+](=O)[O-]	inconclusive: -46.8%
Cc1cc([N+](=O)[O-])nn1Cc1ccc(C(=O)N/N=C/c2ccc(F)cc2)cc1	inconclusive: -41.6%
CCOC(=O)c1[nH]cnc1C(=O)Nc1ccccc1C	inactive: -21.4%
Oc1ccccc1N1CCN(C(=S)Nc2ccc(SC(F)F)cc2)CC1	inconclusive: -57.4%
CCOC(=O)c1ccc(NC(=O)c2cc(C)nn2-c2ccccc2)cc1	inconclusive: -43.9%
Cc1cccc(N2CCN(C(=O)c3nn(C)c4c3CSc3ccccc3-4)CC2C)c1 (stereo not given)	active: -61.6%
CCC1CN(C(=O)NCc2ccccc2)c2ccccc2O1 (stereo not given)	inactive: 15.4%
O=C(NC(=S)N1C[C@H]2C[C@H](C1)c1cccc(=O)n1C2)c1ccc(Cl)cc1Cl	inconclusive: -43.2%
Cc1noc(C)c1CC(=O)N1CCCC(C(=O)c2ccc(C(C)(C)C)cc2)C1 (stereo not given)	inconclusive: -48.7%
CC1=CC(C)(C)N2C(=O)C(=Nc3ccc(O)cc3)c3cccc1c32	inconclusive: -42.4%
Cn1c(SCC(=O)Nc2ccccc2)nc2ccccc2c1=O	inconclusive: -53.9%
Cc1ccc(C)c(N=Nc2nc3ccccc3n2C)c1	inconclusive: -57.9%
CCOc1ccc(N(CC(=O)NCCc2ccc(F)cc2)S(=O)(=O)c2ccccc2)cc1	inconclusive: -56.5%
